Not every detail of the peptide structures is certain; ends, links or a residue may be inferred.
Tests used:
uterine myomas [1] = assay: Ultrasound examination of uterus and myomas in patients treated for uterine myomas; type: in vivo, person; conditions: for reduction in the uterine volume: person, calculated using the formula of the volume of the sphere
[2] = Hormone assays, blood plasma concentrations during and after therapy; type: in vivo, person
uterine myomas [3] = assay: Menstrual bleeding observed during and after therapy; type: in vivo; conditions: person
[4] = person, one month after the start of therapy
[5] = person, one month after the start of therapy, versus before start of therapy
[6] = administration every 14 days for 3 months

CC(C)[C@@H]1NC(=O)[C@H](CCCCN)NC(=O)[C@@H](Cc2c[nH]c3ccccc23)NC(=O)[C@H](Cc2ccc(O)cc2)NC(=O)[C@@H](NC(=O)[C@H](N)Cc2ccc3ccccc3c2)CSSC[C@@H](C(=O)N[C@H](C(N)=O)[C@@H](C)O)NC1=O [Lanreotide]
Uterus volume (uterine myomas [1]; Example 1, patient, 3rd month of treatment, basal 208): 150 cm^3 | Uterus volume (uterine myomas [1]; Example 1, patient, Follow-up, basal 208): 179 cm^3 | Myomas, volume (uterine myomas [1]; Example 1, first myoma listed (basal 24), 3rd month of treatment): 14 cm^3 | Myomas, volume (uterine myomas [1]; Example 1, first myoma listed (basal 24), Follow-up): 18 cm^3 | Myomas, mean diameter (uterine myomas [1]; Example 1, first myoma listed (basal 36), 3rd month of treatment): 30 mm | Myomas, mean diameter (uterine myomas [1]; Example 1, first myoma listed (basal 36), Follow-up): 33 mm | Myomas, volume (uterine myomas [1]; Example 1, second myoma listed (basal 21), 3rd month of treatment): 13 cm^3 | Myomas, volume (uterine myomas [1]; Example 1, second myoma listed (basal 21), Follow-up): 16 cm^3 | Myomas, mean diameter (uterine myomas [1]; Example 1, second myoma listed (basal 34), 3rd month of treatment): 29 mm | Myomas, mean diameter (uterine myomas [1]; Example 1, second myoma listed (basal 34), Follow-up): 31 mm | Uterus volume (uterine myomas [1]; Example 2, patient, 3rd month of treatment, basal 102): 78 cm^3 | Uterus volume (uterine myomas [1]; Example 2, patient, Follow-up, basal 102): 68 cm^3 | Myomas, volume (uterine myomas [1]; Example 2, first myoma listed (basal 0.9), 3rd month of treatment): 0.3 cm^3 | Myomas, volume (uterine myomas [1]; Example 2, first myoma listed (basal 0.9), Follow-up): 0.3 cm^3 | Myomas, mean diameter (uterine myomas [1]; Example 2, first myoma listed (basal 12), 3rd month of treatment): 8 mm | Myomas, mean diameter (uterine myomas [1]; Example 2, first myoma listed (basal 12), Follow-up): 8 mm | Myomas, volume (uterine myomas [1]; Example 2, second myoma listed (basal 10), 3rd month of treatment): 2.6 cm^3 | Myomas, volume (uterine myomas [1]; Example 2, second myoma listed (basal 10), Follow-up): 2.6 cm^3 | Myomas, mean diameter (uterine myomas [1]; Example 2, second myoma listed (basal 27), 3rd month of treatment): 17 mm | Myomas, mean diameter (uterine myomas [1]; Example 2, second myoma listed (basal 27), Follow-up): 17 mm | Myomas, volume (uterine myomas [1]; Example 2, third myoma listed (basal 14), 3rd month of treatment): 3.6 cm^3 | Myomas, volume (uterine myomas [1]; Example 2, third myoma listed (basal 14), Follow-up): 3.6 cm^3 | Myomas, mean diameter (uterine myomas [1]; Example 2, third myoma listed (basal 30), 3rd month of treatment): 19 mm | Myomas, mean diameter (uterine myomas [1]; Example 2, third myoma listed (basal 30), Follow-up): 19 mm | Uterus volume (uterine myomas [1]; Example 3, patient, 3rd month of treatment, basal 394): 239 cm^3 | Uterus volume (uterine myomas [1]; Example 3, patient, Follow-up, basal 394): 230 cm^3 | Myomas, volume (uterine myomas [1]; Example 3, first myoma listed (basal 38.7), 3rd month of treatment): 11.5 cm^3 | Myomas, volume (uterine myomas [1]; Example 3, first myoma listed (basal 38.7), Follow-up): 10,2 cm^3 | Myomas, mean diameter (uterine myomas [1]; Example 3, first myoma listed (basal 42), 3rd month of treatment): 28 mm | Myomas, mean diameter (uterine myomas [1]; Example 3, first myoma listed (basal 42), Follow-up): 27 mm | Myomas, mean diameter (uterine myomas [1]; Example 3, second myoma listed (basal 46), 3rd month of treatment): 30 mm | Myomas, mean diameter (uterine myomas [1]; Example 3, second myoma listed (basal 46), Follow-up): 30 mm | Myomas, volume (uterine myomas [1]; Example 3, second myoma listed (basal 51), 3rd month of treatment): 14.1 cm^3 | Myomas, volume (uterine myomas [1]; Example 3, second myoma listed (basal 51), Follow-up): 14,1 cm^3 | reduction in the uterine volume (uterine myomas [1]; after one month of treatment): 12% | reduction in the uterine volume (uterine myomas [1]; after three months of treatment): 28% | GH ([2]; Example 1, patient, 3rd month of treatment, basal 2.2): 0.5 ng/mL | IGF-I ([2]; Example 1, patient, 3rd month of treatment, basal 3.6): 0.8 IU/ml | FSH ([2]; Example 1, patient, 3rd month of treatment, basal 12): 10.5 mlU/ml | E2 ([2]; Example 1, patient, 3rd month of treatment, basal 80): 72 pglml | GH ([2]; Example 1, patient, Follow-up, basal 2.2): 1.5 ng/mL | IGF-I ([2]; Example 1, patient, Follow-up, basal 3.6): 2.9 IU/ml | FSH ([2]; Example 1, patient, Follow-up, basal 12): 10 mlU/ml | E2 ([2]; Example 1, patient, Follow-up, basal 80): 74 pglml | GH ([2]; Example 2, patient, 3rd month of treatment, basal 1.3): 0.1 ng/mL | IGF-I ([2]; Example 2, patient, 3rd month of treatment, basal 4.1): 0.8 IU/ml | FSH ([2]; Example 2, patient, 3rd month of treatment, basal 22): 79 mlU/ml | E2 ([2]; Example 2, patient, 3rd month of treatment, basal 74): < 20 pg/mL | GH ([2]; Example 2, patient, Follow-up, basal 1.3): 0.8 ng/mL | IGF-I ([2]; Example 2, patient, Follow-up, basal 4.1): 1.3 IU/ml | FSH ([2]; Example 2, patient, Follow-up, basal 22): 84 mlU/ml | E2 ([2]; Example 2, patient, Follow-up, basal 74): < 20 pg/mL | GH ([2]; Example 3, patient, 3rd month of treatment, basal 1.6): 0.2 ng/mL | IGF-I ([2]; Example 3, patient, 3rd month of treatment, basal 3.2): 0.4 IU/ml | E2 ([2]; Example 3, patient, 3rd month of treatment, basal 18): 15 pg/mL | FSH ([2]; Example 3, patient, 3rd month of treatment, basal 134): 113 mlU/ml | GH ([2]; Example 3, patient, Follow-up, basal 1.6): 0.6 ng/mL | IGF-I ([2]; Example 3, patient, Follow-up, basal 3.2): 0.9 IU/ml | E2 ([2]; Example 3, patient, Follow-up, basal 18): 15 pg/mL | FSH ([2]; Example 3, patient, Follow-up, basal 134): 120 mlU/ml | plasma concentrations of GH [2, 4]: inhibition | plasma concentrations of IGF-I [2, 4]: inhibition | levels of E2 [2, 5]: the same levels | levels of FSH [2, 5]: the same levels | reduction in quantity of blood (menstrual bleeding) (uterine myomas [3]; [6]): levels equal to those prior to onset of the myomas | reduction in the duration of menstrual bleeding (uterine myomas [3]; [6]): 50% | Normal menstrual flow (uterine myomas [3]; entire application of the therapy and the three months following interruption of treatment): remained unvaried
